Measurements published in patent US6982315 (dated 2006).

Test: general procedure: Fmoc solid-phase peptide synthesis; TCP (trityl chloride-polystyrene) resin; triphosgene (BTC)/collidine/DIEA; in some couplings HOAt/DIC or HATU/DIEA
Conditions: for cyclisation yield: cyclisation step

H-Nva-Sar-MeLeu-Val-MeLeu-Ala-D-Ala-MeLeu-MeLeu-MeVal-MeLeu-(TCP resin)
cyclisation yield: about 75 to 80%
cyclisation yield (on linear precursor): 82.4%
step yield (purification step, of the crude product): 35.7%
isolated yield (whole synthesis, on first resin loading): 14.9%
crude yield (whole synthesis, overall): 41.8%

Fmoc-MeLeu-MeLeu-MeVal-MeLeu-OH
crude HPLC purity (whole synthesis, UV 214 nm): over 99%

MeLeu-MeLeu-MeVal-MeLeu
purity (crude or final not stated) (whole synthesis, HPLC (214 nm)): over 98%
